Data as given in PubChem BioAssay AID743454 (Peter MacCallum Cancer Centre, 2014)
The whole screen tested about 18,000 reagents; below is a part drawn at random. In the full data, 450 (2.5%) are marked active. 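Single biological run; no consistent viability z cut-off exists, so the class columns, not z-scores, define the calls.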 Entries without a mark were called inactive. Reagent sequences are not shown.

Aim: 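Knock-downs lowering viability or raising caspase 3/7 activity in vorinostat-treated resistant cells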 (primary screen)
Cells: human HCT116-VR colon cancer cells, selected for vorinostat resistance
Knock-down reagent: siRNA pool against human genes, 40 nM siRNA pool
Duration: vorinostat for 24 h, read-out about 72 h after transfection
Challenge: vorinostat at 2.5 µM final
Measurement: 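Cell viability by CellTiter-Fluor and caspase 3/7 activity by luminescence, each scaled to mock wells per plate, duplicates averaged, then robust z-scored over all plates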
Direction: viability robust z-score: higher = more viable cells than screen typical; caspase robust z-score: higher = more caspase 3/7 activity than screen typical
Hit rule: 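Hits are knock-downs in viability class RV1/RV2 or caspase class CA1/CA2, excluding ones that killed cells in the no-drug cell-count arm; hits then retested with single siRNAs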

target gene	viability hit class	caspase hit class	viability robust z-score	caspase robust z-score
PRR5-ARHGAP8 (GeneID 553158)	no change	no change	2.7	0.35
SEMA3D (GeneID 223117)	no change	no change	0	-0.53
MEDAG (GeneID 84935)	no change	no change	-2.42	1
CCDC22 (GeneID 28952)	no change	no change	-0.36	0.56
FAM124B (GeneID 79843)	no change	no change	0.54	0.32
PSAT1 (GeneID 29968)	no change	no change	-0.09	-0.92
RBCK1 (GeneID 10616)	no change	no change	0.14	0.63
ENO1 (GeneID 2023)	no change	no change	0.24	-0.74
GALNT5 (GeneID 11227)	no change	no change	-0.12	-0.62
CHST11 (GeneID 50515)	no change	no change	-1.92	1.77
FBXW4 (GeneID 6468)	no change	no change	-0.99	-0.07
C1R (GeneID 715)	no change	no change	-1.9	0.46
CDK7 (GeneID 1022)	no change	no change	0.2	-0.74
LMBRD2 (GeneID 92255)	no change	no change	-0.21	-0.11
IFNA14 (GeneID 3448)	no change	no change	-0.04	0.35
ERI3 (GeneID 79033)	no change	no change	0.99	-0.29
F2R (GeneID 2149)	no change	no change	1.2	-0.17
PPP1R7 (GeneID 5510)	no change	no change	0	0.9
ZDHHC19 (GeneID 131540)	no change	no change	-0.54	-0.73
ADORA2A (GeneID 135)	no change	no change	0.91	-0.28
HSPA14 (GeneID 51182)	no change	no change	0.29	1.29
GNPTG (GeneID 84572)	no change	no change	-0.16	4.69
SQLE (GeneID 6713)	no change	no change	0.24	-0.2

2 entries from above, arranged by “viability robust z-score”, ascending.
target gene	viability hit class	caspase hit class	viability robust z-score	caspase robust z-score
PPP1R7 (GeneID 5510)	no change	no change	0	0.9
F2R (GeneID 2149)	no change	no change	1.2	-0.17
